# Values quoted from earlier work, collected in patent publication US5260327A, “Methods for inhibiting the proliferation of brain and hepatic metastases by using lonidamine” (priority 1992, dated 1993).
# At least one read-out could not be matched to a standard name with certainty.
# Settings: read-out: plasma levels of nicotinamide; at the time of radiation; cited from earlier work
smiles,measurement,value
NC(=O)c1cccnc1 [nicotinamide],concentration,3000 to 7000 µM
